From patent US20040214755 (published 2004)

Assay: general procedure: Fmoc solid-phase peptide synthesis; 2-chlorotrityl chloride (Cl-TrtCl) polystyrene resin; HATU/DIEA; DIPCDI/HOBt; DIPCDI/DMAP for ester bonds; PyBOP/DIEA for cyclisation
Details: for crude HPLC purity / crude yield: whole synthesis; for crude HPLC purity: analytical RP-HPLC, UV detection at 220 nm; for crude yield: cleavage yield; for cyclisation yield: cyclisation step

Question: Which “crude HPLC purity” value (run 1) does the source give for “5-MeHex-D-Val-Thr(tBu)-Val-D-Val-D-Pro-Orn(Boc)-D-allo-Ile-D-allo-Thr(Val-Z-Dhb-Phe-H)-D-allo-Ile-D-Val-OH” here?
Answer: >70%

Question: And the “crude HPLC purity” value (run 2)?
Answer: >80%

Question: And the crude yield (run 1)?
Answer: 87%

Question: And the crude yield (run 2)?
Answer: 65%

Question: Which “crude HPLC purity” value does the source give for “5-MeHex-Tyr-D-Ser(Gly-H)-Phe-D-Leu-Pro-Thr-OH” here?
Answer: >85%

Question: And the crude yield?
Answer: 89%

Question: With “Kahalalide B [5-MeHex-Tyr-cyclo(D-Ser-Phe-D-Leu-Pro-Thr-Gly)]” as the substance, how does the cyclisation yield (on unprotected linear peptide) read?
Answer: 22%

Question: What does the source list for “5-MeHex-D-Val-Thr-D-Val-Val-D-Pro-Orn-D-allo-Ile-cyclo(D-allo-Thr-D-allo-Ile-D-Val-Phe-ZDhb-Val)”?
Answer: cyclisation yield (overall in cyclization, deprotection and purification steps, run 1): 13%; cyclisation yield (overall in cyclization, deprotection and purification steps, run 2): 10%; crude yield (run 1): 83%; crude yield (run 2): 78%
